These are yes or no findings as the source states them, for the method shown. For some of these results: In cells and extracts the contact can be indirect. Some entries that bind do so weakly or less than the wild type.
Columns and labels:
[1] = target: glutathione S-transferase–YAP (GST-YAP) (human) (UniProt P46937); assay: pull-down; GST-fused bait on glutathione-sepharose 4B incubated with one recombinant protein alone (individually); binding buffer 10 mM HEPES pH 7.9, 2.5 mM MgCl2, 50 mM KCl, 150 mM NaCl, 5% glycerol, 1 mM DTT, 0.1% NP-40; 2 h, 4°C; immunoblot; both purified
[2] = target: glutathione S-transferase–YAP (GST-YAP) (human) (UniProt P46937); assay: pull-down; GST-fused bait on glutathione-sepharose 4B incubated with two recombinant proteins in combination (also with rising amounts of recombinant YAP); binding buffer 10 mM HEPES pH 7.9, 2.5 mM MgCl2, 50 mM KCl, 150 mM NaCl, 5% glycerol, 1 mM DTT, 0.1% NP-40; 2 h, 4°C; immunoblot; both purified
GST–HIF-1α (human) [3] = target: GST–HIF-1α (human) (UniProt Q16665); assay: pull-down; GST-fused bait on glutathione-sepharose 4B incubated with one recombinant protein alone (individually); binding buffer 10 mM HEPES pH 7.9, 2.5 mM MgCl2, 50 mM KCl, 150 mM NaCl, 5% glycerol, 1 mM DTT, 0.1% NP-40; 2 h, 4°C; immunoblot; both purified
GST–HIF-1α (human) [4] = target: GST–HIF-1α (human) (UniProt Q16665); assay: pull-down; GST-fused bait on glutathione-sepharose 4B incubated with two recombinant proteins in combination (also with rising amounts of recombinant YAP); binding buffer 10 mM HEPES pH 7.9, 2.5 mM MgCl2, 50 mM KCl, 150 mM NaCl, 5% glycerol, 1 mM DTT, 0.1% NP-40; 2 h, 4°C; immunoblot; both purified
[5] = target: HA–HIF-1α P402A/P564A, a stabilized form of HIF-1α, plasmid-expressed in HEK293 cells (UniProt Q16665); assay: co-IP; HEK293 cells in which only 2 of the 3 proteins (FLAG-YAP, Myc-TEAD1, HA–HIF-1α P402A/P564A) were overexpressed; lysate with antibody covalently linked to Protein G-Sepharose, 4°C, 2 h; immunoblot
[6] = target: HA–HIF-1α P402A/P564A, a stabilized form of HIF-1α, plasmid-expressed in HEK293 cells (UniProt Q16665); assay: co-IP; HEK293 cells transfected with FLAG-YAP, Myc-TEAD1 and HA–HIF-1α P402A/P564A together; 3 μM MG-132 24 h before harvest; lysate (150 μg) with antibody (4 μg) covalently linked to Protein G-Sepharose, 4°C, 2 h; lysis buffer 10 mM Tris pH 7.5, 150 mM NaCl, 5 mM EDTA, 1% Triton X-100, 50 mM NaF, 10% glycerol; immunoblot
[7] = target: HA–HIF-1α P402A/P564A expressed from adenovirus (Ad-HA–HIF-1α P402A/P564A) in neonatal rat ventricular myocytes (UniProt Q16665); assay: co-IP; NRVMs transduced with Ad-FLAG-YAP, Ad-Myc-TEAD1 and Ad-HA–HIF-1α P402A/P564A together; 3 μM MG-132 24 h before harvest; lysate (150 μg) with antibody (4 μg) covalently linked to Protein G-Sepharose, 4°C, 2 h; lysis buffer 10 mM Tris pH 7.5, 150 mM NaCl, 5 mM EDTA, 1% Triton X-100, 50 mM NaF, 10% glycerol; immunoblot

Chains of the proteins cited; added tags and fusions are not shown. Lines headed by an entry give the natural chain unless they say otherwise; changes in a name come on top.
UniProt P46937: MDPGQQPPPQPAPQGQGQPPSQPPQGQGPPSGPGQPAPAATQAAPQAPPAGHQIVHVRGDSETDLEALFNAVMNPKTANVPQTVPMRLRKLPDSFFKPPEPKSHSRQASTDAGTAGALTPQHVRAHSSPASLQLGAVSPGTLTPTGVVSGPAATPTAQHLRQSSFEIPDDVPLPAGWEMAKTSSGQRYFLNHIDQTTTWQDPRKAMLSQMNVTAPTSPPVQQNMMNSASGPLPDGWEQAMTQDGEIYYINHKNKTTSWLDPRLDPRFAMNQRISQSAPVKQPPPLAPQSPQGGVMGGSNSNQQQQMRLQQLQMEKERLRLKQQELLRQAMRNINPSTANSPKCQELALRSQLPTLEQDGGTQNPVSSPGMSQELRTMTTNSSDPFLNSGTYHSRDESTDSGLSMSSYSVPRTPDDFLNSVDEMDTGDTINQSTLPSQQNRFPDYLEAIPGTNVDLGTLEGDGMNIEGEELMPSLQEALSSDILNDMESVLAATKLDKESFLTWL
UniProt Q16665: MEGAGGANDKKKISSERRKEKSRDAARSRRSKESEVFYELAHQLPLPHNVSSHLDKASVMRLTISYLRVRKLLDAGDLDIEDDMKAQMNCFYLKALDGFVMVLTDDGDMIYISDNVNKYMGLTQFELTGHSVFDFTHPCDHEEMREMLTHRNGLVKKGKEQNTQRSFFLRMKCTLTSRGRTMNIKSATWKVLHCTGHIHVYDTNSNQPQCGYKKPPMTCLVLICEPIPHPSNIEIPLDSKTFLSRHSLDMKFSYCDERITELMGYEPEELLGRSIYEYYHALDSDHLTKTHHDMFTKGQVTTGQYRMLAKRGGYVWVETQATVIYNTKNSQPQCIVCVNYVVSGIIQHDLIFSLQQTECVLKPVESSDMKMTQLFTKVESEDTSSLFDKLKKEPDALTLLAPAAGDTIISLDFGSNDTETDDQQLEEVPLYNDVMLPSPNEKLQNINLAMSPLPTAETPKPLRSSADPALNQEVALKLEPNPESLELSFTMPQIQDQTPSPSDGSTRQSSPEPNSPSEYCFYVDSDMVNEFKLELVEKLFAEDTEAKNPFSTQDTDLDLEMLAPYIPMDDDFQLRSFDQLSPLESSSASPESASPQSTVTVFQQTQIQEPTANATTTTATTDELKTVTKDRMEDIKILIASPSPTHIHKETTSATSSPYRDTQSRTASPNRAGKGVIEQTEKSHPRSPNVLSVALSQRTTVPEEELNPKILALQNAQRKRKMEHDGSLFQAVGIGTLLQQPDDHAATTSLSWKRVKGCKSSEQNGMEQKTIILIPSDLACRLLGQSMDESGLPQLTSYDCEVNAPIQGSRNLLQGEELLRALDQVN

recombinant HIF-1α (from UniProt Q16665 1-826)
binding [1]: binds
binding [2]: binds

recombinant YAP (from UniProt P46937 1-504)
binding (GST–HIF-1α (human) [3]): binds
binding (GST–HIF-1α (human) [4]): binds

FLAG-YAP (Yes-associated protein 1), plasmid-expressed in HEK293 cells (from UniProt P46937 1-504)
binding [5]: binds
binding [6]: binds

FLAG-YAP expressed from adenovirus (Ad-FLAG-YAP) in neonatal rat ventricular myocytes (from UniProt P46937 1-504)
binding [7]: binds

Source: PMC8920343
